In PubChem BioAssay AID248 (DTP/NCI, 2004):
The list shows only some results of the screen, not a fair sample: it gathers tests that were run many times, whatever their T/C, doses with no T/C, and many T/C values between a quarter and a half above the control. Further doses and runs are listed elsewhere. T/C is the treated group as % of the vehicle group. Some doses have a count of surviving animals in place of a T/C: the source holds a T/C of zero for them, seemingly a mark for toxic or unscored doses. Some doses without a T/C left all or most animals alive at the check, yet need not have been tolerated: the source hardly ever lists a survival T/C far under the control, and the zero likely stands for such cases as well. Survivors were counted at the toxicity check, usually on the fifth day, unless a day is given; later deaths do not show. Schedule codes are those of the source, taken here to give the interval after Q, in days (D) or hours (H), and the number of doses after X. Some entries hold several experiments; the results are listed from low to high. Some schedules carry Z or #; the key to these is not given. For survival time, this PubChem deposit counts one and a half times the control or more as active, and values a quarter to a half above the control carry no call in these data; other NCI protocols may use other cut-offs. Some T/C values are followed by the survivors on the day toxicity was checked, most often the fifth; where none is given, no animal had died by that day.

System: L1210 leukemia ip in BDF1 mice, survival T/C
Assay: NCI In Vivo Anticancer Drug Screen. Data for tumor model L1210 Leukemia (intraperitoneal) in B6D2F1 (BDF1) mice
Details: T/C endpoint: mean survival time, higher T/C = longer survival
[1] = dose: 400.0 mg/kg/injection, schedule: Q01DX009 (ip), vehicle: Klucel (hydroxypropylcellulose) (HPC)
[2] = dose: 50.0 mg/kg/injection, schedule: Q01DX009 (ip), vehicle: saline with Tween-80
[3] = dose: 100.0 mg/kg/injection, schedule: Q01DX009 (ip), vehicle: saline with Tween-80
[4] = dose: 200.0 mg/kg/injection, schedule: Q01DX009 (ip), vehicle: saline with Tween-80
[5] = dose: 400.0 mg/kg/injection, schedule: Q01DX001 (ip), vehicle: saline
[6] = dose: 400.0 mg/kg/injection, schedule: Q04DX003 (ip), vehicle: saline with Tween-80
[7] = dose: 100.0 mg/kg/injection, schedule: Q04DX003 (ip), vehicle: saline with Tween-80
[8] = dose: 200.0 mg/kg/injection, schedule: Q04DX003 (ip), vehicle: saline with Tween-80

With `CCCCCCCCCCCCCCCC(=O)OCC1OC(CO)(OC2OC(CO)C(O)C(O)C2O)C(O)C1O` (configuration not stated) the survivor count [1] was 2 of 6.

In the case of `OC(CF)C(O)C(O)C(O)CF` (configuration not stated), the survivor count (dose: 150.0 mg/kg/injection, schedule: Q01DX009 (ip), vehicle: saline) is reported as 6 of 6.

In the case of `NC(N)=N/N=C/c1ccc(O)cc1`, the survivor count (dose: 120.0 mg/kg/injection, schedule: Q01DX Z (ip), vehicle: saline) is reported as 3 of 6.

For `c1ccc(P(=N[P+](c2ccccc2)(c2ccccc2)c2ccccc2)(c2ccccc2)c2ccccc2)cc1`, the survivor count [2] was 0 of 3, the survivor count (dose: 100.0 mg/kg/injection, schedule: Q01DX005 (ip), vehicle: saline with Tween-80) was 0 of 3 and the survivor count [3] was 0 of 3. For the same molecule, the survivor count (dose: 200.0 mg/kg/injection, schedule: Q01DX005 (ip), vehicle: saline with Tween-80) was 0 of 3, the survivor count [4] was 0 of 3 and the survivor count (dose: 400.0 mg/kg/injection, schedule: Q01DX005 (ip), vehicle: saline with Tween-80) was 0 of 3.

With `N#Cc1ccc(O)cc1` the survivor count [1] was 3 of 3.

In the case of `c1ccc([CH2][Pb]([c]2ccccc2)([c]2ccccc2)[c]2ccccc2)cc1`, the survivor count (dose: 100.0 mg/kg/injection, schedule: Q01DX001 (ip), vehicle: saline with Tween-80) is reported as 5 of 6.

With `[N-]=[N+]=NC(c1ccccc1)S(=O)c1ccccc1` (configuration not stated) the survivor count (dose: 400.0 mg/kg/injection, schedule: Q04DX002 (ip), vehicle: Klucel (hydroxypropylcellulose) (HPC)) was 1 of 3.

In the case of `CCC1OCCN1C(C)C` (configuration not stated), the T/C (dose: 40.0 mg/kg/injection, schedule: Q01DX Z (ip), vehicle: other) is reported as 129 % of control, the T/C (dose: 60.0 mg/kg/injection, schedule: Q01DX Z (ip), vehicle: other) is reported as 125 and 127 % of control and the survivor count (dose: 200.0 mg/kg/injection, schedule: Q01DX Z (ip), vehicle: other) is reported as 0 of 6.

With `CCCCCOC(=S)S` the survivor count [5] was 1 of 4.

In the case of `CCN(C(C)(C)C(SSSC(c1ccc(Cl)cc1)C(C)(C)N(CC)S(C)(=O)=O)c1ccc(Cl)cc1)S(C)(=O)=O` (configuration not stated), the survivor count [4] is reported as 5 of 6 and the survivor count (dose: 400.0 mg/kg/injection, schedule: Q01DX009 (ip), vehicle: saline with Tween-80) is reported as 0 of 6.

With `CCCC[n+]1cccc(C#N)c1` the survivor count (dose: 300.0 mg/kg/injection, schedule: Q01DX001 (ip), vehicle: saline) was 1 of 6.

In the case of `O=c1[nH]cnc2c(C3OC(CO)C(O)C3O)[nH]nc12` (configuration not stated), the survivor count (dose: 5.0 mg/kg/injection, schedule: Q01DX015 (ip), vehicle: carboxymethylcellulose (CMC)) is reported as 6 of 6.

In the case of `CN(C)C=Nc1ccc(Cl)c2ccccc12`, the survivor count (dose: 400.0 mg/kg/injection, schedule: Q04DX003 (ip), vehicle: Klucel (hydroxypropylcellulose) (HPC)) is reported as 5 of 6.

With `O=C(Nc1ccccc1F)c1ccc(C(=O)Nc2ccccc2F)cc1` the survivor count [3] was 6 of 6, the survivor count [4] was 6 of 6 and the survivor count [6] was 5 of 6.

`Cc1nc2cccc3ccc4cc5ccccc5c1c4c32` was tested, and the survivor count [6] was 6 of 6.

In the case of `CC[CH2][Sn]([Cl])([Cl])[CH2]CC.Oc1ccccc1C=NCCN=Cc1ccccc1O`, the T/C (dose: 5.0 mg/kg/injection, schedule: Q01DX009 (ip), vehicle: saline with Tween-80) is reported as 141 % of control, the survivor count (dose: 10.0 mg/kg/injection, schedule: Q01DX009 (ip), vehicle: saline with Tween-80) is reported as 3 of 6 and the survivor count (dose: 15.0 mg/kg/injection, schedule: Q01DX009 (ip), vehicle: saline with Tween-80) is reported as 2 of 6. For the same molecule, the survivor count (dose: 20.0 mg/kg/injection, schedule: Q01DX009 (ip), vehicle: saline with Tween-80) was 0 of 5.

For `O=C(Nc1cccc2ccccc12)OCCCBr`, the survivor count [2] was 1 of 3.

In the case of `CSc1nc(N)nc2ncc(CN(C)c3ccc(C(=O)O)cc3)nc12`, the survivor count (dose: 50.0 mg/kg/injection, schedule: Q01DX009 (ip), vehicle: DMSO) is reported as 6 of 6, the survivor count (dose: 100.0 mg/kg/injection, schedule: Q01DX001 (ip), vehicle: DMSO) is reported as 2 of 6 and the survivor count (dose: 200.0 mg/kg/injection, schedule: Q01DX001 (ip), vehicle: DMSO) is reported as 3 of 6.

For `CCOC(=O)N=C=O`, the survivor count (dose: 400.0 mg/kg/injection, schedule: Q01DX009 (ip), vehicle: water) was 6 of 6.

For `Cc1cnc2cccc(C)c2c1Cl`, the survivor count [5] was 1 of 4.

With `CC(=O)Nc1ccc(-c2cnc3ccccc3c2)cc1` the survivor count (dose: 100.0 mg/kg/injection, schedule: Q01DX001 (ip), vehicle: saline) was 2 of 6, the survivor count (dose: 200.0 mg/kg/injection, schedule: Q01DX001 (ip), vehicle: saline) was 0 of 6 and the survivor count [5] was 0 of 6.

With `C[NH-].C[NH-].[Cl][Pt+2][Cl]` the T/C (dose: 0.62 mg/kg/injection, schedule: Q01DX009 (ip), vehicle: water) was 130 and 130 % of control [9 of 10 alive], the T/C (dose: 1.25 mg/kg/injection, schedule: Q01DX009 (ip), vehicle: water) was 131 and 134 % of control and the T/C (dose: 2.5 mg/kg/injection, schedule: Q01DX009 (ip), vehicle: water) was 129 % of control. The survivor count (dose: 3.0 mg/kg/injection, schedule: Q03HX024 (ip), vehicle: water) was 6 of 6, the T/C (dose: 3.12 mg/kg/injection, schedule: Q01DX009 (ip), vehicle: saline with Tween-80) was 134 % of control and the survivor count (dose: 5.0 mg/kg/injection, schedule: Q01DX009 (ip), vehicle: water) was 9 of 10 and 10 of 10. For the same molecule, the T/C (dose: 6.0 mg/kg/injection, schedule: Q01DX009 (ip), vehicle: saline with Tween-80) was 128 % of control, the survivor count (dose: 6.0 mg/kg/injection, schedule: Q03HX024 (ip), vehicle: water) was 1 of 6 and the T/C (dose: 6.25 mg/kg/injection, schedule: Q01DX009 (ip), vehicle: saline with Tween-80) was 141 % of control. For the same molecule, the survivor count (dose: 6.25 mg/kg/injection, schedule: Q03HX008 (ip), vehicle: water) was 4 of 6, the survivor count (dose: 8.0 mg/kg/injection, schedule: Q01DX009 (ip), vehicle: other) was 0 of 6 and the T/C (dose: 8.0 mg/kg/injection, schedule: Q04DX003 (ip), vehicle: saline with Tween-80) was 130 % of control. For the same molecule, the survivor count (dose: 10.0 mg/kg/injection, schedule: Q01DX009 (ip), vehicle: water) was 5 of 10 and 7 of 10, the T/C (dose: 12.0 mg/kg/injection, schedule: Q04DX003 (ip), vehicle: saline with Tween-80) was 132 % of control and the T/C (dose: 12.0 mg/kg/injection, schedule: Q04DX003 (ip), vehicle: water) was 137 % of control. For the same molecule, the T/C (dose: 12.5 mg/kg/injection, schedule: Q01DX001 (ip), vehicle: water) was 129 % of control, the survivor count (dose: 12.5 mg/kg/injection, schedule: Q03HX008 (ip), vehicle: water) was 0 of 6 and the T/C (dose: 12.5 mg/kg/injection, schedule: Q04DX003 (ip), vehicle: saline with Tween-80) was 146 % of control. The T/C (dose: 18.0 mg/kg/injection, schedule: Q04DX003 (ip), vehicle: saline with Tween-80) was 132 and 148 % of control, the survivor count (dose: 24.0 mg/kg/injection, schedule: Q04DX003 (ip), vehicle: water) was 5 of 6 and the survivor count (dose: 25.0 mg/kg/injection, schedule: Q01DX009 (ip), vehicle: saline with Tween-80) was 5 of 6. For the same molecule, the survivor count (dose: 25.0 mg/kg/injection, schedule: Q04DX003 (ip), vehicle: saline with Tween-80) was 6 of 6, the survivor count (dose: 32.0 mg/kg/injection, schedule: Q01DX009 (ip), vehicle: other) was 0 of 6 and the survivor count (dose: 48.0 mg/kg/injection, schedule: Q04DX003 (ip), vehicle: water) was 0 of 6. For the same molecule, the survivor count (dose: 50.0 mg/kg/injection, schedule: Q01DX001 (ip), vehicle: water) was 0 of 6, the survivor count [2] was 0 of 6 and the survivor count (dose: 64.0 mg/kg/injection, schedule: Q01DX001 (ip), vehicle: other) was 3 of 6. The survivor count (dose: 100.0 mg/kg/injection, schedule: Q01DX001 (ip), vehicle: water) was 1 of 6, the survivor count [7] was 1 of 6 and the survivor count [8] was 0 of 6. The survivor count [6] was 0 of 6.

For `CCCCCCCCCC[n+]1cccc(C(N)=O)c1`, the survivor count [7] was 0 of 6, the survivor count [8] was 0 of 6 and the survivor count [6] was 0 of 6.
